# From PubChem BioAssay AID186 (DTP/NCI, 2004)
# Values are animals surviving of animals treated; these mice carried no tumour. Counts of survivors are from the toxicity check (mostly the fifth day) where no day follows; animals may have died later. Schedule codes are those of the source, read here as Q, the interval in days (D) or hours (H), X, the number of doses.
# Test system: B6D2F1 mice, nontumored toxicity test, survival
# Assay: NCI In Vivo Anticancer Drug Screen. Data for tumor model Nontumored Animals (Toxicity Test) in B6D2F1 (BDF1) mice
smiles,measurement,setting,value
NCCc1ccc(O)c(O)c1,survivor count,"dose: 40.0 mg/kg/injection, schedule: Q01DX009 (sc), vehicle: saline",8 of 8
same,survivor count,"dose: 80.0 mg/kg/injection, schedule: Q01DX009 (ip), vehicle: saline",7 of 8
same,survivor count,"dose: 80.0 mg/kg/injection, schedule: Q01DX009 (oral), vehicle: saline",8 of 8
same,survivor count,"dose: 80.0 mg/kg/injection, schedule: Q01DX009 (sc), vehicle: saline",8 of 8
same,survivor count,"dose: 160.0 mg/kg/injection, schedule: Q01DX009 (ip), vehicle: saline",7 of 8
same,survivor count,"dose: 160.0 mg/kg/injection, schedule: Q01DX009 (oral), vehicle: saline",8 of 8
same,survivor count,"dose: 160.0 mg/kg/injection, schedule: Q01DX009 (sc), vehicle: saline",8 of 8
same,survivor count,"dose: 320.0 mg/kg/injection, schedule: Q01DX009 (ip), vehicle: saline",8 of 8
same,survivor count,"dose: 320.0 mg/kg/injection, schedule: Q01DX009 (oral), vehicle: saline",8 of 8
same,survivor count,"dose: 320.0 mg/kg/injection, schedule: Q01DX009 (sc), vehicle: saline",8 of 8
same,survivor count,"dose: 640.0 mg/kg/injection, schedule: Q01DX009 (ip), vehicle: saline",6 of 8
same,survivor count,"dose: 640.0 mg/kg/injection, schedule: Q01DX009 (oral), vehicle: saline",8 of 8
same,survivor count,"dose: 640.0 mg/kg/injection, schedule: Q01DX009 (sc), vehicle: saline",6 of 8
NC(=O)c1[nH]nc(C2OC(CO)C(O)C2O)c1O (stereo not given),survivor count,"dose: 0.5 mg/kg/injection, schedule: Q04DX003 (ip), vehicle: saline",8 of 8
same,survivor count,"dose: 1.0 mg/kg/injection, schedule: Q04DX003 (ip), vehicle: saline",8 of 8
same,survivor count,"dose: 2.0 mg/kg/injection, schedule: Q04DX003 (ip), vehicle: saline",8 of 8
same,survivor count,"dose: 4.0 mg/kg/injection, schedule: Q04DX003 (ip), vehicle: saline",8 of 8
same,survivor count,"dose: 8.0 mg/kg/injection, schedule: Q04DX003 (ip), vehicle: saline",8 of 8
same,survivor count,"dose: 16.0 mg/kg/injection, schedule: Q04DX003 (ip), vehicle: saline",8 of 8
same,survivor count,"dose: 32.0 mg/kg/injection, schedule: Q04DX003 (ip), vehicle: saline",8 of 8
O=CC(NC(=O)N(CCCl)N=O)C(O)C(O)C(O)CO (stereo not given),survivor count,"dose: 16.0 mg/kg/injection, schedule: Q01DX001 (ip), vehicle: saline",10 of 10
same,survivor count,"dose: 20.0 mg/kg/injection, schedule: Q01DX001 (ip), vehicle: saline",10 of 10
same,survivor count,"dose: 24.0 mg/kg/injection, schedule: Q01DX001 (ip), vehicle: saline",10 of 10
same,survivor count,"dose: 28.0 mg/kg/injection, schedule: Q01DX001 (ip), vehicle: saline",10 of 10
Nc1nc(=S)c2ncn(C3CC(O)C(CO)O3)c2[nH]1 (stereo not given),survivor count,"dose: 6.0 mg/kg/injection, schedule: Q01DX005 (oral), vehicle: saline",8 of 8
same,survivor count,"dose: 12.0 mg/kg/injection, schedule: Q01DX005 (oral), vehicle: saline",8 of 8
same,survivor count,"dose: 24.0 mg/kg/injection, schedule: Q01DX005 (oral), vehicle: saline",8 of 8
same,survivor count,"dose: 48.0 mg/kg/injection, schedule: Q01DX005 (oral), vehicle: saline",8 of 8
same,survivor count,"dose: 60.0 mg/kg/injection, schedule: Q08DX002 (oral), vehicle: saline",8 of 8
same,survivor count,"dose: 96.0 mg/kg/injection, schedule: Q01DX005 (oral), vehicle: saline",8 of 8
same,survivor count,"dose: 120.0 mg/kg/injection, schedule: Q08DX002 (oral), vehicle: saline",8 of 8
same,survivor count,"dose: 240.0 mg/kg/injection, schedule: Q08DX002 (oral), vehicle: saline",8 of 8
same,survivor count,"dose: 480.0 mg/kg/injection, schedule: Q08DX002 (oral), vehicle: saline",8 of 8
same,survivor count,"dose: 960.0 mg/kg/injection, schedule: Q08DX002 (oral), vehicle: saline",8 of 8
O=[N+]([O-])c1ccc(CSc2ncnc3c2ncn3C2OC(CO)C(O)C2O)cc1 (stereo not given),survivor count,"dose: 3.13 mg/kg/injection, schedule: Q01DX009 (ip), vehicle: saline with Tween-80",5 of 5
same,survivor count,"dose: 6.25 mg/kg/injection, schedule: Q01DX009 (ip), vehicle: saline with Tween-80",5 of 5
same,survivor count,"dose: 12.5 mg/kg/injection, schedule: Q01DX009 (ip), vehicle: saline with Tween-80",5 of 5
same,survivor count,"dose: 25.0 mg/kg/injection, schedule: Q01DX009 (ip), vehicle: saline with Tween-80",5 of 5
same,survivor count,"dose: 50.0 mg/kg/injection, schedule: Q01DX009 (ip), vehicle: saline with Tween-80",5 of 5
same,survivor count,"dose: 100.0 mg/kg/injection, schedule: Q01DX009 (ip), vehicle: saline with Tween-80",5 of 5
